Laboratory results taken from patent US20250206828A1, “ANTI-ADENOSINE RECEPTOR (A2aR) ANTIBODIES AND THE USE THEREOF” (Adept Therapeutics Inc., priority 2022, published 2025).
These are yes or no findings as the source states them, for the method shown. Some binding calls cover weakened binding; strength is not graded here.

Biological target: human adenosine A2A receptor (A2aR) (human, UniProt P29274 1-412)
Assay: flow cytometry titration, HEK293-hA2aR cells

Row | binding | Binder
1 | binds | Hu3F8-H4/Hu3F8-L4 (antibody, human IgG1, V domains shown, Human IgG1 FES (L234F, L235E, P331S) and human Ig kappa constant domains; also called Hu3F8 VH4/VL4) VH: EVQLVQSGAEVKKPGASVKVSCKASGFTFTRYWMNWVRQAPGQGLEWIGRIDPSDSETHYNHKFWGRATLTVDKSTSTVYMELSSLRSEDTAVYYCLRSLYGKGDYWGQGTTVTVSS VL: DIVMTQSPLSLPVTPGEPASISCRSSQSIVHSNGNTYLEWYLQKPGQSPQLLIYKVSNRFSGVPDRFSGSGSGTDFTLKISRVEAEDVGVYYCYQGSHVPLTFGGGTKVEIK
2 | binds | Hu3F8-H4/Hu3F8-L5 (antibody, human IgG1, V domains shown, Human IgG1 FES (L234F, L235E, P331S) and human Ig kappa constant domains; also called Hu3F8 VH4/VL5) VH: EVQLVQSGAEVKKPGASVKVSCKASGFTFTRYWMNWVRQAPGQGLEWIGRIDPSDSETHYNHKFWGRATLTVDKSTSTVYMELSSLRSEDTAVYYCLRSLYGKGDYWGQGTTVTVSS VL: DVVMTQSPLSLPVTPGEPASISCRSSQSIVHSNGNTYLEWYLQKPGQSPQLLIYKVSNRFSGVPDRFSGSGSGTDFTLKISRVEAEDVGVYYCYQGSHVPLTFGGGTKVEIK

The next lines start with the binder.

Row | Binder | binding
3 | Hu3F6-H2/Hu3F6-L3 (antibody, human IgG1, V domains shown, Human IgG1 FES (L234F, L235E, P331S) and human Ig kappa constant domains; also called Hu3F6 VH2/VL3) VH: EVQLVQSGAEVKKPGASVKVSCKTSGFAFTSYWMNWVRQAPGQGLEWMGRIDPSDSEAHYHHKFWGRVTMTVDTSTSTVYMELSSLRSEDTAVYYCLRSLYGKGDYWGHGTTVTVSS VL: DVVMTQSPLSLPVTLGQPASISCRSSQSLVHRNGNTYLEWYQQRPGQSPRLLIYKVSNRFSGVPDRFSGSGSGTDFTLKISRVEAEDVGVYYCYQGSHVPLTFGGGTKVEIK | binds
4 | Hu3F6-H2/Hu3F6-L4 (antibody, human IgG1, V domains shown, Human IgG1 FES (L234F, L235E, P331S) and human Ig kappa constant domains; also called Hu3F6 VH2/VL4) VH: EVQLVQSGAEVKKPGASVKVSCKTSGFAFTSYWMNWVRQAPGQGLEWMGRIDPSDSEAHYHHKFWGRVTMTVDTSTSTVYMELSSLRSEDTAVYYCLRSLYGKGDYWGHGTTVTVSS VL: DIVMTQTPLSLSVTPGQPASISCRSSQSLVHRNGNTYLEWYLQKPGQSPQLLIYKVSNRFSGVPDRFSGSGSGTDFTLKISRVEAEDVGVYYCYQGSHVPLTFGGGTKVEIK | binds
5 | Hu3F6-H2/Hu3F6-L5 (antibody, human IgG1, V domains shown, Human IgG1 FES (L234F, L235E, P331S) and human Ig kappa constant domains; also called Hu3F6 VH2/VL5) VH: EVQLVQSGAEVKKPGASVKVSCKTSGFAFTSYWMNWVRQAPGQGLEWMGRIDPSDSEAHYHHKFWGRVTMTVDTSTSTVYMELSSLRSEDTAVYYCLRSLYGKGDYWGHGTTVTVSS VL: DVVMTQTPLSLSVTPGQPASISCRSSQSLVHRNGNTYLEWYLQKPGQSPQLLIYKVSNRFSGVPDRFSGSGSGTDFTLKISRVEAEDVGVYYCYQGSHVPLTFGGGTKVEIK | binds
6 | Hu3F6-H2/Hu3F6-L8 (antibody, human IgG1, V domains shown, Human IgG1 FES (L234F, L235E, P331S) and human Ig kappa constant domains; also called Hu3F6 VH2/VL8) VH: EVQLVQSGAEVKKPGASVKVSCKTSGFAFTSYWMNWVRQAPGQGLEWMGRIDPSDSEAHYHHKFWGRVTMTVDTSTSTVYMELSSLRSEDTAVYYCLRSLYGKGDYWGHGTTVTVSS VL: DVVMTQSPLSLPVTPGEPASISCRSSQSLVHRNGNTYLEWYLQKPGQSPQLLIYKVSNRFSGVPDRFSGSGSGTDFTLKISRVEAEDVGVYYCYQGSHVPLTFGGGTKVEIK | binds
7 | Hu3F8-H4/Hu3F8-L3 (antibody, human IgG1, V domains shown, Human IgG1 FES (L234F, L235E, P331S) and human Ig kappa constant domains; also called Hu3F8 VH4/VL3) VH: EVQLVQSGAEVKKPGASVKVSCKASGFTFTRYWMNWVRQAPGQGLEWIGRIDPSDSETHYNHKFWGRATLTVDKSTSTVYMELSSLRSEDTAVYYCLRSLYGKGDYWGQGTTVTVSS VL: DVVMTQSPLSLPVTLGQPASISCRSSQSIVHSNGNTYLEWYQQRPGQSPRLLIYKVSNRFSGVPDRFSGSGSGTDFTLKISRVEAEDVGVYYCYQGSHVPLTFGGGTKVEIK | binds
